According to the supplement of paper PMC10849652:
The list shows a part of the results.

The chains behind the UniProt entries cited, without tags or fusion partners. Where a name states a change or a piece, a line headed by the entry shows the natural chain unless it says otherwise.
UniProt Q6P5S2: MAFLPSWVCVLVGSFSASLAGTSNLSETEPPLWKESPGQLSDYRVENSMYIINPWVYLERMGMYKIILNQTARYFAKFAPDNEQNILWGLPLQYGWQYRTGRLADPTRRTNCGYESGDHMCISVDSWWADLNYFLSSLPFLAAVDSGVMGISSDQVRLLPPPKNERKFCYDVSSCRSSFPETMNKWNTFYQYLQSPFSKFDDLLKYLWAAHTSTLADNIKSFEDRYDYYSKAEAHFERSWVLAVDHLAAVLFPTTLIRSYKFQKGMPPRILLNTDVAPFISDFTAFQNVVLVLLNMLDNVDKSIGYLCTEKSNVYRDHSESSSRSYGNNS
UniProt Q8WVP7: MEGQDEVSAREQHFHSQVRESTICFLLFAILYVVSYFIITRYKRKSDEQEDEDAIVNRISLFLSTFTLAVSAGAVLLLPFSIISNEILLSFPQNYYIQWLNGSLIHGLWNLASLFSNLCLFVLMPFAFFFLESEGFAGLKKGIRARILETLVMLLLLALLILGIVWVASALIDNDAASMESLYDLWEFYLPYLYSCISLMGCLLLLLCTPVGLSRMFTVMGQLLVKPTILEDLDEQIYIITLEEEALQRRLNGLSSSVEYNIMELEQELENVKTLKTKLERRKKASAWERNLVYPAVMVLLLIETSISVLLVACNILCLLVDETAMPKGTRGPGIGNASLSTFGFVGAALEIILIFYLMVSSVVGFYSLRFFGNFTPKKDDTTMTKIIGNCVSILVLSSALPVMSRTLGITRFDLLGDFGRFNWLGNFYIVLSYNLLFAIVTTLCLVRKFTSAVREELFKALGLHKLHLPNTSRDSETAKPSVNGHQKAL
UniProt O75197: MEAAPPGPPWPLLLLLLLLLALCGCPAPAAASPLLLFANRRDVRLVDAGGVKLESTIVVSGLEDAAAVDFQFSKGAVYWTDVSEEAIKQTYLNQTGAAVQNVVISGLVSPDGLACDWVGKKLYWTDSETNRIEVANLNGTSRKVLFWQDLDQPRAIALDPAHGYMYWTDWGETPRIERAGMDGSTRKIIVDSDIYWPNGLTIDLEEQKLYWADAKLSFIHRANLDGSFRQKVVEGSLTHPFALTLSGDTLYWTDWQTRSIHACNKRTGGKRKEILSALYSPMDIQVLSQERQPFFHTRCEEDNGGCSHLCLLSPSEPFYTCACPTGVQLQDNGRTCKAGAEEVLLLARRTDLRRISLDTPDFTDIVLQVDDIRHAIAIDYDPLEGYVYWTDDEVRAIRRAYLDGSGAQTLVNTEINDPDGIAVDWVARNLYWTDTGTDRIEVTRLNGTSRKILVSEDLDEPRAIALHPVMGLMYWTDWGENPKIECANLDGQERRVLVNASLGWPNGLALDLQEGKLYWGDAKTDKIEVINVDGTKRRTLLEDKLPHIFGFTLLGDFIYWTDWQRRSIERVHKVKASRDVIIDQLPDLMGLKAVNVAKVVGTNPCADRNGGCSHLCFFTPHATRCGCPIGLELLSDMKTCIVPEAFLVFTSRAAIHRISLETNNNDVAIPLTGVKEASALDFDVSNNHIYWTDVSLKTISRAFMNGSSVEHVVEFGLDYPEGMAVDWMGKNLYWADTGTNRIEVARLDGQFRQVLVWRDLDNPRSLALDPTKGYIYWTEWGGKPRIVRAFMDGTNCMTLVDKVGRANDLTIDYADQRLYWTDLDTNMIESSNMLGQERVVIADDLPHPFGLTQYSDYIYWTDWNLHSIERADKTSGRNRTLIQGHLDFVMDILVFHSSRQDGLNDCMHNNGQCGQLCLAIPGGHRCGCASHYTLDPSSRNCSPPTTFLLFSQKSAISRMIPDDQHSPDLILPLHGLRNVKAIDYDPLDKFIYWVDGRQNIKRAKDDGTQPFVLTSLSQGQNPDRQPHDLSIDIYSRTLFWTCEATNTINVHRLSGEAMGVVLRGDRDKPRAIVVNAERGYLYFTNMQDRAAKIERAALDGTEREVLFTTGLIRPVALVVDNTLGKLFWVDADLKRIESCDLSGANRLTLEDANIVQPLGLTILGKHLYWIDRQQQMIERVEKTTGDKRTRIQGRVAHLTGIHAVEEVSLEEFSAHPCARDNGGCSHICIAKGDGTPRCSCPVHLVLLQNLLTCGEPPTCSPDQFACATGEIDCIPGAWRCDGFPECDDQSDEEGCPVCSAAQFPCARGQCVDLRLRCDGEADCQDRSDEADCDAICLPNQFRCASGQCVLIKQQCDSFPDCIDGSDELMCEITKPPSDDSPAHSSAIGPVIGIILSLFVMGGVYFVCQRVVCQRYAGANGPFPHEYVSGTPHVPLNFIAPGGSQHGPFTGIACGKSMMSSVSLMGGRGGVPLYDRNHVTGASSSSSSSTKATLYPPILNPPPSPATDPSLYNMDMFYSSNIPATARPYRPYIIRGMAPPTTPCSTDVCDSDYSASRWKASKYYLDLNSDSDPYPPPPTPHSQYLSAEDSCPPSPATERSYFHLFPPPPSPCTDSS
UniProt Q86WU2: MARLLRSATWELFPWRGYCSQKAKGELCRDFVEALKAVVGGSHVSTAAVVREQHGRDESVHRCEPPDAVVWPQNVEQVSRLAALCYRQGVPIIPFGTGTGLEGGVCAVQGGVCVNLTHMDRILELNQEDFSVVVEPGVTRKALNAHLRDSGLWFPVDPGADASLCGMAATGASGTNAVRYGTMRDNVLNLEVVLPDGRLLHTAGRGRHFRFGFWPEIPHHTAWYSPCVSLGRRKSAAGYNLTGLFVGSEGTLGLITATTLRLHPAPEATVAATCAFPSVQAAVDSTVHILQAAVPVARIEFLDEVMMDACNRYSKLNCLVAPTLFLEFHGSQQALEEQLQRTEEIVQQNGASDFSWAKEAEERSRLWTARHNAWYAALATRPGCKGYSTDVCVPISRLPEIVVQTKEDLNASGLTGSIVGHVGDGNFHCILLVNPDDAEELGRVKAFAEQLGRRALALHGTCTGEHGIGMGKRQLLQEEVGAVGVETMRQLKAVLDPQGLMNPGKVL
UniProt Q52LA3: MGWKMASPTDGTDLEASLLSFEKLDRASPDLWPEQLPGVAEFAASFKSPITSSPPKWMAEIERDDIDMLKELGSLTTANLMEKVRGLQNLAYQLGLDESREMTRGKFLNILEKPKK
UniProt Q9BX40: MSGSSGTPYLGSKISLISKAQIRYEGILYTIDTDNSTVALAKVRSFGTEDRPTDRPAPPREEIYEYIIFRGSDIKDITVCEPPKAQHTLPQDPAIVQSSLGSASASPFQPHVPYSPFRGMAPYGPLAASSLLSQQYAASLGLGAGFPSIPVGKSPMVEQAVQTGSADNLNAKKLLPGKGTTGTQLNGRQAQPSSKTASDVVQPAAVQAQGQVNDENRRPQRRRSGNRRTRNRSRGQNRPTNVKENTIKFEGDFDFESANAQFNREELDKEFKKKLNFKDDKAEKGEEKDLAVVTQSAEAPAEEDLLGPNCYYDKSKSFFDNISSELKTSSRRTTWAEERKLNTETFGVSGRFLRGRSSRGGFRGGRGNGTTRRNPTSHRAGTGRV
UniProt Q9BT23: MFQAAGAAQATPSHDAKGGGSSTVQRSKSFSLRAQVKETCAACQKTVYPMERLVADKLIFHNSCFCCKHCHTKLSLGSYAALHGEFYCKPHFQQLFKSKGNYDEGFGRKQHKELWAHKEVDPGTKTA
UniProt Q92604: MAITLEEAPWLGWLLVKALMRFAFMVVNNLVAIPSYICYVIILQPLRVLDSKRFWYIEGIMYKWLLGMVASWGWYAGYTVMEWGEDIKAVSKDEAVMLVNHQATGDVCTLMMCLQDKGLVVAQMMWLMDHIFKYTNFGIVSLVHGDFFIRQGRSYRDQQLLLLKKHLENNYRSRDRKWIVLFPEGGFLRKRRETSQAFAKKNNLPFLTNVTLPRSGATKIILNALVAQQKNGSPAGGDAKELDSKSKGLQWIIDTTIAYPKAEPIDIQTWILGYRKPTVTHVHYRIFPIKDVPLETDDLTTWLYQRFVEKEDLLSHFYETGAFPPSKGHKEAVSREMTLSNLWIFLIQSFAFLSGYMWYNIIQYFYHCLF
UniProt Q6NSJ5: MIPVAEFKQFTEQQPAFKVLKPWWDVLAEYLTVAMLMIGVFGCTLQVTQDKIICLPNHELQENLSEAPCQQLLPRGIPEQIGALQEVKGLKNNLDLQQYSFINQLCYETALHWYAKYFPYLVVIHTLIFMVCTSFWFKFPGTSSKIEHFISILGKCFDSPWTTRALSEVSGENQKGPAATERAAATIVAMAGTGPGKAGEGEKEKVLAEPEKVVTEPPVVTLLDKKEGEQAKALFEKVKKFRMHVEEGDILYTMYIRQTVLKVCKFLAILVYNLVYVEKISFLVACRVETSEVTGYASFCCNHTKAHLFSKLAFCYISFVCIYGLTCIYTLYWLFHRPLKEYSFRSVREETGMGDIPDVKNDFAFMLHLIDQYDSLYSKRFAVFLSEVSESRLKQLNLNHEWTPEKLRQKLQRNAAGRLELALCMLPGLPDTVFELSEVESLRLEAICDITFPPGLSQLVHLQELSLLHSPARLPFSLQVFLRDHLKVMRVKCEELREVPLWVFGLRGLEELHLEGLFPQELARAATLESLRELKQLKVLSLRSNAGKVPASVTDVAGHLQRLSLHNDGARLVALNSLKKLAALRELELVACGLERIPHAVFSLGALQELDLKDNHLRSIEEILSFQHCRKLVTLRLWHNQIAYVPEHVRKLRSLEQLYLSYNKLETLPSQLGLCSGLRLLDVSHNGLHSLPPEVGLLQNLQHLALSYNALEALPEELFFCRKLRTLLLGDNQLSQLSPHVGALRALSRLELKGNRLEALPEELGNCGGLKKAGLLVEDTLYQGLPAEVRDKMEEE
UniProt P23490: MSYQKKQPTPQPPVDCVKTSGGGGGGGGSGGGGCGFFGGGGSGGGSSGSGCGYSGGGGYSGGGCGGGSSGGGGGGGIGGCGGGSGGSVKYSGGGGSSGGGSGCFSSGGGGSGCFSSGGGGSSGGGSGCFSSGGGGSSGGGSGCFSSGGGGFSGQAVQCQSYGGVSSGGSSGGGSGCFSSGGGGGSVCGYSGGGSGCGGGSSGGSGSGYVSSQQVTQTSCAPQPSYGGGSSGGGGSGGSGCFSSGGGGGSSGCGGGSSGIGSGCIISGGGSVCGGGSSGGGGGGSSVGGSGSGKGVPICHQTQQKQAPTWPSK
UniProt Q96NW7: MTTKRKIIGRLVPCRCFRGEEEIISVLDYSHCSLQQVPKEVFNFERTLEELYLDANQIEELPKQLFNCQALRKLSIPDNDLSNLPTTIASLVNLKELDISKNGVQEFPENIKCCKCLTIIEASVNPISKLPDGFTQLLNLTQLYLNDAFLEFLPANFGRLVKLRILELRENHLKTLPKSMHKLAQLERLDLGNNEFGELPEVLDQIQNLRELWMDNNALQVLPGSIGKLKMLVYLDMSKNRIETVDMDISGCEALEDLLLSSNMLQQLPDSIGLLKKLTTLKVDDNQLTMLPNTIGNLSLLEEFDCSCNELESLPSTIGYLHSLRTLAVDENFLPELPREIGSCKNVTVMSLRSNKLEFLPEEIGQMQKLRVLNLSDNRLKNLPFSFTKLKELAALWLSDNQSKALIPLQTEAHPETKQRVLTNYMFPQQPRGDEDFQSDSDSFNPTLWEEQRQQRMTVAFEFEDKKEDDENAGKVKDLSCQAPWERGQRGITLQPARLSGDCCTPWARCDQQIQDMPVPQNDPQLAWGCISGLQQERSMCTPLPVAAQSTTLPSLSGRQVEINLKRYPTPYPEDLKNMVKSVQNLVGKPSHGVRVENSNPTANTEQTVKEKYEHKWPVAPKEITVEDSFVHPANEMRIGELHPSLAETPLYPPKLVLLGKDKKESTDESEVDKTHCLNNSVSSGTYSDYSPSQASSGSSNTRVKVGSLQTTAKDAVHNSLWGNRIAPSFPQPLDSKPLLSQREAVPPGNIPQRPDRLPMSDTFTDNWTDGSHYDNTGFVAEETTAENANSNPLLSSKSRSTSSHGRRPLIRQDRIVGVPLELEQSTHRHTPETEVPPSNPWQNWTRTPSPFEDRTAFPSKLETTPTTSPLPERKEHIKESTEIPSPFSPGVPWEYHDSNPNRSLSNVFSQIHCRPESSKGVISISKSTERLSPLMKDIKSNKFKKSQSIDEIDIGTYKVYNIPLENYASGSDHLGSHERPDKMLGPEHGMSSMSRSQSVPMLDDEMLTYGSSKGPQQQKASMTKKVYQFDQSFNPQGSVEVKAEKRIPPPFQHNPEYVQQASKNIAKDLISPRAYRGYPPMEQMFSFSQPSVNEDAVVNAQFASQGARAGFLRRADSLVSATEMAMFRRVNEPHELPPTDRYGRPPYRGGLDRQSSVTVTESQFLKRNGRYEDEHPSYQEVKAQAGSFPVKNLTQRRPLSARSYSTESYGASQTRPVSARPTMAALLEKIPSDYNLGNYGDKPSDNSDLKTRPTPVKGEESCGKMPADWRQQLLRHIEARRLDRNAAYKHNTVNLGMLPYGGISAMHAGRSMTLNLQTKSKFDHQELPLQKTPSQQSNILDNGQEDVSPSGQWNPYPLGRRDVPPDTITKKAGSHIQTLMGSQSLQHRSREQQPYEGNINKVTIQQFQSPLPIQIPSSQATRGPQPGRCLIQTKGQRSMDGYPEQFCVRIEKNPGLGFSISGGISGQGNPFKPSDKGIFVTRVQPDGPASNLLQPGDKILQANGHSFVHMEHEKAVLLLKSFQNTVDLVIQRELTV

Columns and labels:
Test in all cases: log2 fold change, soluble protein after heating vs DMSO (PISA); higher = thermal stabilisation; K562 lysate, 10 uM; active = over 0.2 and 3.5 SD of the protein, either way, in both replicates (recomputed)
erlotinib = compound: C#Cc1cccc(Nc2ncnc3cc(OCCOC)c(OCCOC)cc23)c1 [erlotinib]
How it was run: (§1)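 K562 pellets were dounce-homogenised in PBS pH 7.4 with 1 mM MgCl2, and the crude extract at 1 mg/mL protein was treated with 10 μM compound for 30 min. Aliquots were heated for 3 min across 48°C-58°C, pooled, and brought to 0.5% NP-40 at 4°C; soluble protein was the supernatant after 21,000xg for 90 min. Soluble protein was quantified by TMTpro 16plex LC-MS/MS with channel sums equalised, and reported as log2 fold change in thermal stability against DMSO controls, with values from duplicates.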

[1] = compound: C/C(=N\NC(=O)C1=CC(=CC=C1)S(=O)(=O)N2CCOCC2)/C3=C(C=CC(=C3)Cl)O
How it was run: as §1

[2] = compound: C1=CC(=CC=C1C2=NC3=C(N2)C=C(C=C3)C(=O)N)OC4=CC=C(C=C4)Cl
How it was run: as §1

[3] = compound: C1=CC2=C(C=CC(=C2)/C=C\3/C(=O)NC(=NCC4=CC=CS4)S3)N=C1
How it was run: as §1

[4] = compound: C1=CC2=NC=CN=C2C=C1/C=C/3\C(=O)NC(=O)S3
How it was run: as §1

[5] = compound: C1=CC=C(C=C1)C2=NC(=C(N2)C3=CC=NC=C3)C4=CC(=C(C=C4)Cl)O
How it was run: as §1

[6] = compound: C1=CC=C2C(=C1)C3=NNC4=CC=CC(=C43)C2=O
How it was run: as §1

[7] = compound: C1CCN(C1)C(=O)NC2=CC=CC(=C2)NC3=NC=C(C(=N3)NCCC4=CN=CN4)Br
How it was run: as §1

[8] = compound: C1CN(CCC1(CC2=CC=C(C=C2)Cl)N)C3=NC=NC4=C3C=CN4
How it was run: as §1

IRAK-1-4 Inhibitor I = compound: C1COCCN1CCN2C3=CC=CC=C3N=C2NC(=O)C4=CC(=CC=C4)[N+](=O)[O-] [IRAK-1-4 Inhibitor I]
How it was run: as §1

Measured: log2 fold change

LDHA isoform 3 (UniProt P00338)
inactive: erlotinib -0.011 | [1] -0.025 | [2] 0.023 | [3] -0.022 | [4] 0.004 | [5] -0.003 | [6] 0.029 | [7] 0.006 | [8] 0.013 | IRAK-1-4 Inhibitor I 0.017

LMBRD1 (UniProt Q9NUN5)
inactive: erlotinib -0.007 | [1] 0.02 | [2] -0.009 | [3] -0.028 | [4] 0.059 | [5] 0.066 | [6] 0.007 | [7] 0.005 | [8] 0.02 | IRAK-1-4 Inhibitor I 0.036

LEG1 (UniProt Q6P5S2)
inactive: erlotinib 0.017 | [2] -0.062 | [4] -0.062 | [5] -0.254 | [7] -0.171 | [8] 0.111 | IRAK-1-4 Inhibitor I -0.178

LITAF (UniProt Q99732)
inactive: erlotinib 0.009 | [2] -0.126 | [5] -0.054 | [7] 0.034 | [8] -0.072 | IRAK-1-4 Inhibitor I 0.011

LONRF2 (UniProt Q1L5Z9)
inactive: erlotinib 0.098 | [2] 0.058 | [7] 0.069 | [8] 0.214

LRP8 (UniProt Q14114)
inactive: [1] -0.087 | [3] 0.071 | [4] -0.124 | [5] 0.009 | [6] -0.072 | [7] -0.106 | [8] -0.06 | IRAK-1-4 Inhibitor I -0.088

LMBR1 isoform 3 (UniProt Q8WVP7)
inactive: [4] -0.1

LRP1 (UniProt Q07954)
inactive: [1] 0.266 | [3] -0.092 | [6] -0.211 | [7] -0.196 | [8] -0.055

LRP5 (UniProt O75197)
inactive: erlotinib -0.142 | [2] -0.1 | [7] -0.062 | [8] 0.193

LRG1 (UniProt P02750)
inactive: erlotinib -0.019 | [2] -0.02 | [4] -0.016 | [7] -0.077 | [8] 0.066

LIN28A (UniProt Q9H9Z2)
inactive: erlotinib -0.082 | [2] -0.046 | [4] 0.019

LEMD3 (UniProt Q9Y2U8)
inactive: erlotinib -0.073 | [2] 0.096 | [4] -0.174 | [5] 0.076 | IRAK-1-4 Inhibitor I -0.06

LDHD (UniProt Q86WU2)
inactive: [4] -0.193 | [7] -0.062 | [8] 0.049

LPCAT2 (UniProt Q7L5N7)
inactive: [1] 0.394 | [3] 0.09 | [4] -0.019 | [6] 0.07 | [7] -0.002 | [8] 0.088

LIN52 (UniProt Q52LA3)
inactive: erlotinib -0.149 | [2] 0.243 | [5] 0.031 | IRAK-1-4 Inhibitor I 0.001

LDHA (UniProt F5GZQ4)
inactive: [4] -0.259 | [5] -0.055 | IRAK-1-4 Inhibitor I -0.099

LONP2 (UniProt Q86WA8)
inactive: [1] 0.57 | [3] 0.207 | [6] -0.328

LSM14B (UniProt Q9BX40)
inactive: erlotinib -0.053 | [2] -0.006 | [4] 0.031 | [5] -0.017 | IRAK-1-4 Inhibitor I 0.083

LSM10 (UniProt Q969L4)
inactive: erlotinib 0.04 | [2] 0.16 | [4] 0.058 | [5] -0.013 | IRAK-1-4 Inhibitor I -0.089

LRP6 (UniProt O75581)
inactive: erlotinib -0.057 | [2] 0.048 | [4] -0.094 | [5] 0.039 | [7] 0.023 | [8] 0.073 | IRAK-1-4 Inhibitor I 0.007

LIMD2 (UniProt Q9BT23)
inactive: [4] -0.076

Copied from above (two entries):
LMBRD1 (UniProt Q9NUN5)
inactive: erlotinib -0.007 | [1] 0.02 | [2] -0.009 | [3] -0.028 | [4] 0.059 | [5] 0.066 | [6] 0.007 | [7] 0.005 | [8] 0.02 | IRAK-1-4 Inhibitor I 0.036

LEG1 (UniProt Q6P5S2)
inactive: erlotinib 0.017 | [2] -0.062 | [4] -0.062 | [5] -0.254 | [7] -0.171 | [8] 0.111 | IRAK-1-4 Inhibitor I -0.178

Remaining list, next part

LRRC25 (UniProt Q8N386)
inactive: [7] -0.038 | [8] -0.068

LIG1 isoform 3 (UniProt P18858)
inactive: [5] 0.013 | [7] 0.013 | [8] 0.065 | IRAK-1-4 Inhibitor I 0.102

LPGAT1 (UniProt Q92604)
inactive: erlotinib 0.087 | [2] 0.032 | [5] -0.036 | [7] -0.148 | [8] 0.097 | IRAK-1-4 Inhibitor I -0.147

LRRC8E (UniProt Q6NSJ5)
inactive: [1] -0.069 | [3] -0.098 | [5] -0.003 | [6] -0.08 | [7] -0.039 | [8] -0.075 | IRAK-1-4 Inhibitor I -0.034

LOR (UniProt P23490)
inactive: [4] 0.326

LRRIQ1 (UniProt Q96JM4)
inactive: [1] 0.038 | [3] -0.003 | [5] 0.041 | [6] -0.003 | IRAK-1-4 Inhibitor I -0.083

LRCH1 isoform 3 (UniProt Q9Y2L9)
inactive: [4] -0.157 | [5] -0.303 | IRAK-1-4 Inhibitor I 0.24

LRRC7 (UniProt Q96NW7)
inactive: [1] 0.042 | [4] -0.108 | [5] 0.065 | [6] 0.038 | [7] 0.02 | [8] 0.067 | IRAK-1-4 Inhibitor I 0.048
active: [3] -0.493
